PubChem BioAssay AID720505 | Drosophila RNAi Screening Center | 2013

Aim: 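Knock-downs that reduce calcium influx once internal stores are emptied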 (primary screen)
System: Drosophila S2R+ cells
Reagents: long dsRNA against Drosophila genes
Challenge: thapsigargin (2 µM) in calcium-free buffer to empty internal stores, then 2 mM calcium added back
Detection: 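Fluo-4 signal in 384-well plates read on a FLIPR after thapsigargin (2 µM, calcium-free) store depletion and 2 mM calcium add-back; unnormalised mean endpoint per well; screen run twice, selected wells retested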
Scale: calcium signal and retest calcium signal: higher = more calcium entry after store depletion
Rule for the call: 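About 1500 genes called as lowering calcium entry, by varying amounts, judged against per-plate control wells with STIM1 as positive and Rho1 as negative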
Calls: active = called as lowering calcium entry; inactive = not called
The deposit covers about 20,000 reagents; below is a random part of those with a known target gene and a result. Of all reagents, about 2,100 (10%) got an active call. 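Raw plate signals without normalisation; calls rest on control-based scores that were not deposited; replicate 2 separates called from uncalled poorly.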 A plus sign joins genes that one reagent is predicted to hit. Not stated in the record: the amount of reagent, the time to read-out.

gene	dsRNA	calcium signal, replicate 1	calcium signal, replicate 2	retest calcium signal, replicate 1	retest calcium signal, replicate 2	activity call
CG14456	DRSC11713	73.8	94.7			inactive
CG42362 + CG42363	DRSC04265	86.6	89.6			inactive
CG8026	DRSC07055	137	98.2	89.6	115	inactive
CG8026	DRSC07056	170	181			inactive
prt (portabella)	DRSC16894	150	89.5			inactive
RpS23 (Ribosomal protein S23)	DRSC07169	154	142			inactive
cN-IIIB (cytosolic 5'-nucleotidase IIIB)	DRSC04359	72.5	170			active
CG13625	DRSC14627	171	191			inactive
CG6951	DRSC10755	64	112			active
CG7453	DRSC20046	159	90.8			inactive
CG8329	DRSC10978	90.2	93.9			inactive
beat-VI (beaten path VI)	DRSC14474	158	165			inactive
beat-VI (beaten path VI)	DRSC14727	172	129			inactive
GstS1 (Glutathione S transferase S1)	DRSC07436	114	123			inactive
CG31462 (retired record)	DRSC14359	132	121			inactive
AttA (Attacin-A)	DRSC05926	166	163			inactive
Src64B (Src oncogene at 64B)	DRSC08700	87	50.6			inactive
Mis12	DRSC10299	97.3	55.7			inactive
mRpS23 (mitochondrial ribosomal protein S23)	DRSC01348	214	107			inactive
Ge-1	DRSC02938	74.7	115			inactive
CG12438	DRSC02167	119	84.2			inactive
Oseg6 (Outer segment 6)	DRSC06066	153	146			inactive
l(1)10Bb (lethal (1) 10Bb)	DRSC20346	75.8	89.6			active
Gasp	DRSC12349	117	148			inactive
CG5555	DRSC15834	111	223			inactive
shams	DRSC16590	206	108			inactive
Cyfip (Cytoplasmic FMR1 interacting protein)	DRSC15679	78.1	108			active
nclb (no child left behind)	DRSC07009	119	138			inactive
CG31775 + CG42586	DRSC22289	101	203			inactive
CG31775 + CG42586	DRSC23266	106	134			inactive
CG5892	DRSC15910	169	81.9			inactive
CG1463	DRSC19603	87.1	116			inactive
PhKgamma (Phosphorylase kinase gamma)	DRSC20268	172	114			inactive
CG10584	DRSC11624	99.6	87.8			inactive
CG11425	DRSC11657	88.6	162			inactive
Nepl10 (Neprilysin-like 10)	DRSC07212	120	141			inactive
Lcp65Ag3 + Lcp65Ag2 + Lcp65Ag1	DRSC11214	64.7	46.9			active
Lcp65Ag3 + Lcp65Ag2 + Lcp65Ag1	DRSC11215	69.9	49			inactive
CG1208	DRSC12190	102	138			inactive
Rab3-GAP (Rab3 GTPase activating protein)	DRSC02001	109	82.8			inactive
Kal1 (Kallmann syndrome 1)	DRSC15983	152	153			inactive
trus (toys are us)	DRSC15772	146	110			inactive
CG13392	DRSC02262	164	203			inactive
lncRNA:CR40629 (long non-coding RNA:CR40629)	DRSC20959	86.7	11707			inactive
Cpr65Aw (Cuticular protein 65Aw)	DRSC08794					active
CG9451	DRSC11074	105	189			inactive
CG15927	DRSC19742	51.9	104			active
Polr2B (RNA polymerase II subunit B)	DRSC16831	60	91.8			active
CG31740	DRSC01619	217	99.2			inactive
CG10962	DRSC18421	106	148			inactive
Ir51b (Ionotropic receptor 51b)	DRSC05540	110	166			inactive
CG12680	DRSC17871	265	126			inactive
HDAC11 (Histone deacetylase 11)	DRSC14280	119	95.5			inactive
Snrk (SNF related kinase)	DRSC07192	195	123			inactive
Snrk (SNF related kinase)	DRSC23332	103	135			inactive
Nxf3 (Nuclear export factor 3)	DRSC21749	142	138			inactive
CG14490	DRSC06461	93.1	141			inactive
CG14275	DRSC02379	148	143			inactive
Shc (SHC-adaptor protein)	DRSC11284	89.8	105			inactive
Fer1HCH (Ferritin 1 heavy chain homologue)	DRSC16671	94	156			inactive
CG12828	DRSC06177	140	176			inactive
CG14567	DRSC11728	91.1	175			inactive
Tango1 (Transport and Golgi organization 1)	DRSC02127	112	305			inactive
Kaz-m1 (Kazal-type protease inhibitor m1)	DRSC16990	210	123			inactive
CG7182	DRSC10780	76.2	130			inactive
CG7071 + Muted	DRSC16189	196	177			inactive
Hacd2 (3-hydroxyacyl-CoA dehydratase 2)	DRSC03181	97.9	106			inactive
CG1492	DRSC19605	113	113			inactive
CG12343	DRSC06135	109	116			inactive
Cyp6a23 (Cytochrome P450 6a23)	DRSC07383	141	129			inactive
Dolk (Dolichol kinase)	DRSC07143	125	114			inactive
CG18809	DRSC19818	50.6	92.1			active
CG8312	DRSC16406	157	107			inactive
vib (vibrator)	DRSC17094	195	192			inactive
LpR2 (Lipophorin receptor 2)	DRSC15655	95.7	115			inactive
LpR2 (Lipophorin receptor 2)	DRSC15658	172	124			inactive
Obp19d (Odorant-binding protein 19d)	DRSC20569	142	80			inactive
Lapsyn (Leucine-rich repeat activity-regulated protein at synapses)	DRSC04249	155	83.5			inactive
w (white)	DRSC18850	122	161			inactive
CG3726	DRSC18320	58.7	124	138	97.9	active
CG3726	DRSC23143	114	142			inactive
CG31650	DRSC03140	105	112	104	112	inactive
Sfp26Ad (Seminal fluid protein 26Ad)	DRSC00904	111	128			inactive

Ordered by “calcium signal, replicate 1” (ascending): 12 of the entries above
gene	dsRNA	calcium signal, replicate 1	calcium signal, replicate 2	retest calcium signal, replicate 1	retest calcium signal, replicate 2	activity call
CG15927	DRSC19742	51.9	104			active
Polr2B (RNA polymerase II subunit B)	DRSC16831	60	91.8			active
CG14490	DRSC06461	93.1	141			inactive
Snrk (SNF related kinase)	DRSC23332	103	135			inactive
CG9451	DRSC11074	105	189			inactive
CG10962	DRSC18421	106	148			inactive
Ir51b (Ionotropic receptor 51b)	DRSC05540	110	166			inactive
HDAC11 (Histone deacetylase 11)	DRSC14280	119	95.5			inactive
Nxf3 (Nuclear export factor 3)	DRSC21749	142	138			inactive
Snrk (SNF related kinase)	DRSC07192	195	123			inactive
CG31740	DRSC01619	217	99.2			inactive
CG12680	DRSC17871	265	126			inactive
